In PMC10492306:
These are yes or no findings as the source states them, for the method shown. In cells and extracts the contact can be indirect. Some entries that bind do so weakly or less than the wild type. Tags and fused reporters may be left off the sequences shown.

T1: Flag-TGFβRI (TGF-β receptor I), P36897
T1 chain: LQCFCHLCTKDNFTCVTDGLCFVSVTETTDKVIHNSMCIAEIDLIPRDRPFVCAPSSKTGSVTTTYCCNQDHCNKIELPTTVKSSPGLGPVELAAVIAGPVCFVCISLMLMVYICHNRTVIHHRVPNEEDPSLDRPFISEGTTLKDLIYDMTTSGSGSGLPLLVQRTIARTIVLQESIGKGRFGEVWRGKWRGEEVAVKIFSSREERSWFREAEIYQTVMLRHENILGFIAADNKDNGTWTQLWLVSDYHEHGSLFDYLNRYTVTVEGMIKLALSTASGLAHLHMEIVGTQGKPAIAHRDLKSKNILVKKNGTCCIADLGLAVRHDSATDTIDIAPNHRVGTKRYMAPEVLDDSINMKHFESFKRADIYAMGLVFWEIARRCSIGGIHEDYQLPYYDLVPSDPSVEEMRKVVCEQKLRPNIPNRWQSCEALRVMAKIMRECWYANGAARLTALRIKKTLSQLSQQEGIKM


Key:
[1] = molecular target: HA-SMAD3, P84022; test: co-IP; Flag-TGFβRI immunoprecipitates and HA-SMAD3 immunoprecipitates from lysates of PANC-1 and BxPC-3 cells, western blot; 5 ng/ml TGF-β, 15 min; sh-ctrl or circEIF3I knockdown, also with ectopic circEIF3I-WT, circ-mut-SMAD3 or circ-mut-AP2A1; conditions: remark: other sources report otherwise
[2] = molecular target: T1, Flag-TGFβRI (TGF-β receptor I), P36897; test: as above; conditions: remark: other sources report otherwise

binding [1] | binding [2] | Binder
binds |  | Flag-TGFβRI (TGF-β receptor I), P36897 34-503 (receptor) LQCFCHLCTKDNFTCVTDGLCFVSVTETTDKVIHNSMCIAEIDLIPRDRPFVCAPSSKTGSVTTTYCCNQDHCNKIELPTTVKSSPGLGPVELAAVIAGPVCFVCISLMLMVYICHNRTVIHHRVPNEEDPSLDRPFISEGTTLKDLIYDMTTSGSGSGLPLLVQRTIARTIVLQESIGKGRFGEVWRGKWRGEEVAVKIFSSREERSWFREAEIYQTVMLRHENILGFIAADNKDNGTWTQLWLVSDYHEHGSLFDYLNRYTVTVEGMIKLALSTASGLAHLHMEIVGTQGKPAIAHRDLKSKNILVKKNGTCCIADLGLAVRHDSATDTIDIAPNHRVGTKRYMAPEVLDDSINMKHFESFKRADIYAMGLVFWEIARRCSIGGIHEDYQLPYYDLVPSDPSVEEMRKVVCEQKLRPNIPNRWQSCEALRVMAKIMRECWYANGAARLTALRIKKTLSQLSQQEGIKM
 | binds | HA-SMAD3, P84022 1-425 (protein) MSSILPFTPPIVKRLLGWKKGEQNGQEEKWCEKAVKSLVKKLKKTGQLDELEKAITTQNVNTKCITIPRSLDGRLQVSHRKGLPHVIYCRLWRWPDLHSHHELRAMELCEFAFNMKKDEVCVNPYHYQRVETPVLPPVLVPRHTEIPAEFPPLDDYSHSIPENTNFPAGIEPQSNIPETPPPGYLSEDGETSDHQMNHSMDAGSPNLSPNPMSPAHNNLDLQPVTYCEPAFWCSISYYELNQRVGETFHASQPSMTVDGFTDPSNSERFCLGLLSNVNRNAAVELTRRHIGRGVRLYYIGGEVFAECLSDSAIFVQSPNCNQRYGWHPATVCKIPPGCNLKIFNNQEFAALLAQSVNQGFEAVYQLTRMCTIRMSFVKGWGAEYRRQTVTSTPCWIELHLNGPLQWLDKVLTQMGSPSIRCSSVS
